# In the supplement of paper PMC8728848:
# The list shows a part of the results.
# Tests used:
# Experiment in all cases: glycan array binding signal (z-score within array); higher = stronger binding
# Settings in all cases: glycan notation: IUPAC condensed, linker removed
# [1] = molecular target: Fuc(a1-2)Gal(b1-4)GlcNAc(b1-2)Man(a1-3)[Fuc(a1-2)Gal(b1-4)GlcNAc(b1-2)Man(a1-6)]Man(b1-4)GlcNAc(b1-4)[Fuc(a1-6)]GlcNAc
# Summary of the method: (§1)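 From the Consortium for Functional Glycomics database, 3228 arrays were curated, keeping only those whose protein sequence was available. Binding is given as a within-array Z-score averaged across arrays sharing a protein sequence and across linkers. Negative Z-scores can be read as non-binding.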
# [2] = molecular target: Fuc(a1-2)Gal(b1-4)GlcNAc(b1-2)[Fuc(a1-2)Gal(b1-4)GlcNAc(b1-4)]Man(a1-3)[Fuc(a1-2)Gal(b1-4)GlcNAc(b1-2)Man(a1-6)]Man(b1-4)GlcNAc(b1-4)GlcNAc
# Summary of the method: as §1
# [3] = molecular target: Fuc(a1-2)Gal(b1-4)GlcNAc(b1-3)Gal(b1-4)GlcNAc
# Summary of the method: as §1
# [4] = molecular target: Fuc(a1-2)Gal(b1-4)GlcNAc(b1-3)Gal(b1-4)GlcNAc(b1-2)Man(a1-3)[Fuc(a1-2)Gal(b1-4)GlcNAc(b1-3)Gal(b1-4)GlcNAc(b1-2)Man(a1-6)]Man(b1-4)GlcNAc(b1-4)GlcNAc
# Summary of the method: as §1
# [5] = molecular target: Fuc(a1-2)Gal(b1-4)GlcNAc(b1-3)Gal(b1-4)GlcNAc(b1-3)Gal(b1-4)GlcNAc
# Summary of the method: as §1
# [6] = molecular target: Fuc(a1-2)Gal(b1-4)GlcNAc(b1-3)GalNAc
# Summary of the method: as §1
# [7] = molecular target: Fuc(a1-2)Gal(b1-4)GlcNAc(b1-3)[Fuc(a1-2)Gal(b1-4)GlcNAc(b1-6)]GalNAc
# Summary of the method: as §1
# [8] = molecular target: Fuc(a1-2)Gal(b1-4)GlcNAc(b1-3)[Fuc(a1-3)[Gal(b1-4)]GlcNAc(b1-6)]Gal(b1-4)Glc
# Summary of the method: as §1
# [9] = molecular target: Fuc(a1-2)Gal(b1-4)GlcNAc(b1-6)GalNAc
# Summary of the method: as §1
# [10] = molecular target: Fuc(a1-2)Gal(b1-4)GlcNAc6S
# Summary of the method: as §1
# [11] = molecular target: Fuc(a1-2)Gal(b1-4)[Fuc(a1-3)]GlcNAc
# Summary of the method: as §1
# [12] = molecular target: Fuc(a1-2)Gal(b1-4)[Fuc(a1-3)]GlcNAc(b1-2)Man(a1-3)[Fuc(a1-2)Gal(b1-4)[Fuc(a1-3)]GlcNAc(b1-2)Man(a1-6)]Man(b1-4)GlcNAc(b1-4)GlcNAc
# Summary of the method: as §1
# [13] = molecular target: Fuc(a1-2)Gal(b1-4)[Fuc(a1-3)]GlcNAc(b1-2)Man(a1-3)[Fuc(a1-2)Gal(b1-4)[Fuc(a1-3)]GlcNAc(b1-2)Man(a1-6)]Man(b1-4)GlcNAc(b1-4)[Fuc(a1-6)]GlcNAc
# Summary of the method: as §1
# [14] = molecular target: Fuc(a1-2)Gal(b1-4)[Fuc(a1-3)]GlcNAc(b1-2)Man(a1-6)[Fuc(a1-2)Gal(b1-4)[Fuc(a1-3)]GlcNAc(b1-2)Man(a1-3)]Man(b1-4)GlcNAc(b1-4)[Fuc(a1-6)]GlcNAc
# Summary of the method: as §1
# [15] = molecular target: Fuc(a1-2)Gal(b1-4)[Fuc(a1-3)]GlcNAc(b1-2)[Fuc(a1-2)Gal(b1-4)[Fuc(a1-3)]GlcNAc(b1-4)]Man(a1-3)[Fuc(a1-2)Gal(b1-4)[Fuc(a1-3)]GlcNAc(b1-2)Man(a1-6)]Man(b1-4)GlcNAc(b1-4)GlcNAc
# Summary of the method: as §1
# [16] = molecular target: Fuc(a1-2)Gal(b1-4)[Fuc(a1-3)]GlcNAc(b1-3)Gal(b1-4)[Fuc(a1-3)]GlcNAc
# Summary of the method: as §1
# [17] = molecular target: Fuc(a1-2)Gal(b1-4)[Fuc(a1-3)]GlcNAc(b1-3)Gal(b1-4)[Fuc(a1-3)]GlcNAc(b1-3)Gal(b1-4)[Fuc(a1-3)]GlcNAc
# Summary of the method: as §1
# [18] = molecular target: Fuc(a1-2)Gal(b1-4)[Fuc(a1-3)]GlcNAc(b1-3)GalNAc
# Summary of the method: as §1
# [19] = molecular target: Fuc(a1-2)Gal(b1-4)[Fuc(a1-3)]GlcNAc(b1-3)[Neu5Ac(a2-6)Gal(b1-4)GlcNAc(b1-6)]Gal(b1-4)Glc
# Summary of the method: as §1
# [20] = molecular target: Fuc(a1-2)Gal3S(b1-4)GlcNAc
# Summary of the method: as §1
# [21] = molecular target: Fuc(a1-2)Gal6S(b1-3)GlcNAc
# Summary of the method: as §1
# [22] = molecular target: Fuc(a1-2)Gal6S(b1-3)GlcNAc6S
# Summary of the method: as §1
# Fuc(a1-2)Gal6S(b1-4)Glc = molecular target: Fuc(a1-2)Gal6S(b1-4)Glc
# Summary of the method: as §1
# [23] = molecular target: Fuc(a1-2)Gal6S(b1-4)Glc6S
# Summary of the method: as §1
# [24] = molecular target: Fuc(a1-2)Gal6S(b1-4)GlcNAc
# Summary of the method: as §1
# Fuc(a1-2)[Gal(a1-3)]Gal = molecular target: Fuc(a1-2)[Gal(a1-3)]Gal
# Summary of the method: as §1
# [25] = molecular target: Fuc(a1-2)[Gal(a1-3)]Gal(b1-3)GalNAc
# Summary of the method: as §1
# [26] = molecular target: Fuc(a1-2)[Gal(a1-3)]Gal(b1-3)GalNAc(b1-3)Gal(a1-4)Gal(b1-4)Glc
# Summary of the method: as §1
# [27] = molecular target: Fuc(a1-2)[Gal(a1-3)]Gal(b1-3)GlcNAc
# Summary of the method: as §1
# [28] = molecular target: Fuc(a1-2)[Gal(a1-3)]Gal(b1-3)GlcNAc(b1-2)Man(a1-3)[Fuc(a1-2)[Gal(a1-3)]Gal(b1-3)GlcNAc(b1-2)Man(a1-6)]Man(b1-4)GlcNAc(b1-4)GlcNAc
# Summary of the method: as §1
binder,measurement,setting,value
"LlpA1 (Pseudomonas fluorescens), Q4KHC3 (protein) MGSSHHHHHHSSGLVPRGSHMAWIRYDFTDNGSSVLPARYYMAPNQYLQSPNKRFKLLFQADGNLALYDGAQLAWVADQNTPFTNVSKGNKKDPMMVFMNYGFVLDDPLRGRIWSTTPSDPTMGSREDASLRAFTQVQDDGNIVTVDTIPHWYAPNGRVFTPAVGAAMIIGGTTELVPGQFYSAGEHSLVFQGDGNLVVYGPNSSVIWATYTQNKGGVRCVMQEDGNLVIYAANNGVVWQSGTGGHPGATIRLQANGSFTIVTERPVWARFGYTPTIKPPRVFYPDHKWKTGSYTWNNVF",glycan array binding signal (z-score),[1],0.466
same,glycan array binding signal (z-score),[2],0.461
same,glycan array binding signal (z-score),[3],-0.073
same,glycan array binding signal (z-score),[4],0.02
same,glycan array binding signal (z-score),[5],-0.012
same,glycan array binding signal (z-score),[6],-0.734
same,glycan array binding signal (z-score),[7],-0.395
same,glycan array binding signal (z-score),[8],-0.454
same,glycan array binding signal (z-score),[9],0.386
same,glycan array binding signal (z-score),[10],-0.574
same,glycan array binding signal (z-score),[11],-0.526
same,glycan array binding signal (z-score),[12],1.11
same,glycan array binding signal (z-score),[13],-0.257
same,glycan array binding signal (z-score),[14],-0.542
same,glycan array binding signal (z-score),[15],-0.042
same,glycan array binding signal (z-score),[16],-0.508
same,glycan array binding signal (z-score),[17],0.739
same,glycan array binding signal (z-score),[18],2.56
same,glycan array binding signal (z-score),[19],-0.445
same,glycan array binding signal (z-score),[20],-0.21
same,glycan array binding signal (z-score),[21],-0.108
same,glycan array binding signal (z-score),[22],0.35
same,glycan array binding signal (z-score),Fuc(a1-2)Gal6S(b1-4)Glc,0.128
same,glycan array binding signal (z-score),[23],-0.197
same,glycan array binding signal (z-score),[24],-0.1
same,glycan array binding signal (z-score),Fuc(a1-2)[Gal(a1-3)]Gal,0.141
same,glycan array binding signal (z-score),[25],0.724
same,glycan array binding signal (z-score),[26],-0.507
same,glycan array binding signal (z-score),[27],-0.148
same,glycan array binding signal (z-score),[28],-0.032

# A second format for some results above:
binder	measurement	setting	value
LlpA1 (Pseudomonas fluorescens), Q4KHC3 (protein) MGSSHHHHHHSSGLVPRGSHMAWIRYDFTDNGSSVLPARYYMAPNQYLQSPNKRFKLLFQADGNLALYDGAQLAWVADQNTPFTNVSKGNKKDPMMVFMNYGFVLDDPLRGRIWSTTPSDPTMGSREDASLRAFTQVQDDGNIVTVDTIPHWYAPNGRVFTPAVGAAMIIGGTTELVPGQFYSAGEHSLVFQGDGNLVVYGPNSSVIWATYTQNKGGVRCVMQEDGNLVIYAANNGVVWQSGTGGHPGATIRLQANGSFTIVTERPVWARFGYTPTIKPPRVFYPDHKWKTGSYTWNNVF	glycan array binding signal (z-score)	[19]	-0.445
same	glycan array binding signal (z-score)	[27]	-0.148
